Results are given in words; binding and its absence hold for the method and conditions named. Some binding calls cover weakened binding; strength is not graded here.

The source of these data is paper PMC10948360.

This assay addresses T1, Full-length kinesin heavy chain (Khc FL), unlabeled (Drosophila), P17210.
T1 chain: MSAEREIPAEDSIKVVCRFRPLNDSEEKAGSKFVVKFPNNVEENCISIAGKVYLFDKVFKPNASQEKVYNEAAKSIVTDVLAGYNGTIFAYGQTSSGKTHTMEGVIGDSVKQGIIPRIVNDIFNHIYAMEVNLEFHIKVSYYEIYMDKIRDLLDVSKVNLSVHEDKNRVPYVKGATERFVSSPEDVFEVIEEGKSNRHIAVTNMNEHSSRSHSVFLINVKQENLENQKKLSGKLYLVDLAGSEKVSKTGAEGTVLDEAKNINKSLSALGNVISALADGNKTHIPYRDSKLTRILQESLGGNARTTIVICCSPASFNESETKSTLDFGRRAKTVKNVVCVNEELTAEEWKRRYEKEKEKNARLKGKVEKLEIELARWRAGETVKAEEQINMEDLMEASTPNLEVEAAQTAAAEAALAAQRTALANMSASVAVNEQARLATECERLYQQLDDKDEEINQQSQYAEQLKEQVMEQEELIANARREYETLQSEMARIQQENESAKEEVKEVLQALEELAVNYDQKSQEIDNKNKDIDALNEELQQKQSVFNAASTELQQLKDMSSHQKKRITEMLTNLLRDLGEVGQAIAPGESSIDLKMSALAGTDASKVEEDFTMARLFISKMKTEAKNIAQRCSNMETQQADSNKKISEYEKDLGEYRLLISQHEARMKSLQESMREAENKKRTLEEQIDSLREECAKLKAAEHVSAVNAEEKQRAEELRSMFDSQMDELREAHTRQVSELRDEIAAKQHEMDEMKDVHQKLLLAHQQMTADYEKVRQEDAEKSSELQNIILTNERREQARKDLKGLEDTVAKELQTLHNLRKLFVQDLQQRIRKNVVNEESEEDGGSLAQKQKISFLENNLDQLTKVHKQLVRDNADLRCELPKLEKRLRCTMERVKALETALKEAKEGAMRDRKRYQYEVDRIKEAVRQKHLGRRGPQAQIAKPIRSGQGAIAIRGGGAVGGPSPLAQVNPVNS
The assay can be described thus: mass photometry; coexpressed, copurified Khc–Tm1 complex at 20 nM in PBS; both purified. As to conditions: remark: other sources report otherwise.

B1: Full-length kinesin heavy chain (Khc FL), unlabeled, P17210 1-975 (protein)
chain: MSAEREIPAEDSIKVVCRFRPLNDSEEKAGSKFVVKFPNNVEENCISIAGKVYLFDKVFKPNASQEKVYNEAAKSIVTDVLAGYNGTIFAYGQTSSGKTHTMEGVIGDSVKQGIIPRIVNDIFNHIYAMEVNLEFHIKVSYYEIYMDKIRDLLDVSKVNLSVHEDKNRVPYVKGATERFVSSPEDVFEVIEEGKSNRHIAVTNMNEHSSRSHSVFLINVKQENLENQKKLSGKLYLVDLAGSEKVSKTGAEGTVLDEAKNINKSLSALGNVISALADGNKTHIPYRDSKLTRILQESLGGNARTTIVICCSPASFNESETKSTLDFGRRAKTVKNVVCVNEELTAEEWKRRYEKEKEKNARLKGKVEKLEIELARWRAGETVKAEEQINMEDLMEASTPNLEVEAAQTAAAEAALAAQRTALANMSASVAVNEQARLATECERLYQQLDDKDEEINQQSQYAEQLKEQVMEQEELIANARREYETLQSEMARIQQENESAKEEVKEVLQALEELAVNYDQKSQEIDNKNKDIDALNEELQQKQSVFNAASTELQQLKDMSSHQKKRITEMLTNLLRDLGEVGQAIAPGESSIDLKMSALAGTDASKVEEDFTMARLFISKMKTEAKNIAQRCSNMETQQADSNKKISEYEKDLGEYRLLISQHEARMKSLQESMREAENKKRTLEEQIDSLREECAKLKAAEHVSAVNAEEKQRAEELRSMFDSQMDELREAHTRQVSELRDEIAAKQHEMDEMKDVHQKLLLAHQQMTADYEKVRQEDAEKSSELQNIILTNERREQARKDLKGLEDTVAKELQTLHNLRKLFVQDLQQRIRKNVVNEESEEDGGSLAQKQKISFLENNLDQLTKVHKQLVRDNADLRCELPKLEKRLRCTMERVKALETALKEAKEGAMRDRKRYQYEVDRIKEAVRQKHLGRRGPQAQIAKPIRSGQGAIAIRGGGAVGGPSPLAQVNPVNS
Consider B1, for which the binding result is reported as “binds”.
